PMC11791976, “CDC20‐Mediated Selective Autophagy Degradation of PBRM1 Affects Immunotherapy for Renal Cell Carcinoma” (Advanced Science, 2024)

Sequences of proteins named here, by UniProt entry; tags and fusion partners are left off.
UniProt Q86U86: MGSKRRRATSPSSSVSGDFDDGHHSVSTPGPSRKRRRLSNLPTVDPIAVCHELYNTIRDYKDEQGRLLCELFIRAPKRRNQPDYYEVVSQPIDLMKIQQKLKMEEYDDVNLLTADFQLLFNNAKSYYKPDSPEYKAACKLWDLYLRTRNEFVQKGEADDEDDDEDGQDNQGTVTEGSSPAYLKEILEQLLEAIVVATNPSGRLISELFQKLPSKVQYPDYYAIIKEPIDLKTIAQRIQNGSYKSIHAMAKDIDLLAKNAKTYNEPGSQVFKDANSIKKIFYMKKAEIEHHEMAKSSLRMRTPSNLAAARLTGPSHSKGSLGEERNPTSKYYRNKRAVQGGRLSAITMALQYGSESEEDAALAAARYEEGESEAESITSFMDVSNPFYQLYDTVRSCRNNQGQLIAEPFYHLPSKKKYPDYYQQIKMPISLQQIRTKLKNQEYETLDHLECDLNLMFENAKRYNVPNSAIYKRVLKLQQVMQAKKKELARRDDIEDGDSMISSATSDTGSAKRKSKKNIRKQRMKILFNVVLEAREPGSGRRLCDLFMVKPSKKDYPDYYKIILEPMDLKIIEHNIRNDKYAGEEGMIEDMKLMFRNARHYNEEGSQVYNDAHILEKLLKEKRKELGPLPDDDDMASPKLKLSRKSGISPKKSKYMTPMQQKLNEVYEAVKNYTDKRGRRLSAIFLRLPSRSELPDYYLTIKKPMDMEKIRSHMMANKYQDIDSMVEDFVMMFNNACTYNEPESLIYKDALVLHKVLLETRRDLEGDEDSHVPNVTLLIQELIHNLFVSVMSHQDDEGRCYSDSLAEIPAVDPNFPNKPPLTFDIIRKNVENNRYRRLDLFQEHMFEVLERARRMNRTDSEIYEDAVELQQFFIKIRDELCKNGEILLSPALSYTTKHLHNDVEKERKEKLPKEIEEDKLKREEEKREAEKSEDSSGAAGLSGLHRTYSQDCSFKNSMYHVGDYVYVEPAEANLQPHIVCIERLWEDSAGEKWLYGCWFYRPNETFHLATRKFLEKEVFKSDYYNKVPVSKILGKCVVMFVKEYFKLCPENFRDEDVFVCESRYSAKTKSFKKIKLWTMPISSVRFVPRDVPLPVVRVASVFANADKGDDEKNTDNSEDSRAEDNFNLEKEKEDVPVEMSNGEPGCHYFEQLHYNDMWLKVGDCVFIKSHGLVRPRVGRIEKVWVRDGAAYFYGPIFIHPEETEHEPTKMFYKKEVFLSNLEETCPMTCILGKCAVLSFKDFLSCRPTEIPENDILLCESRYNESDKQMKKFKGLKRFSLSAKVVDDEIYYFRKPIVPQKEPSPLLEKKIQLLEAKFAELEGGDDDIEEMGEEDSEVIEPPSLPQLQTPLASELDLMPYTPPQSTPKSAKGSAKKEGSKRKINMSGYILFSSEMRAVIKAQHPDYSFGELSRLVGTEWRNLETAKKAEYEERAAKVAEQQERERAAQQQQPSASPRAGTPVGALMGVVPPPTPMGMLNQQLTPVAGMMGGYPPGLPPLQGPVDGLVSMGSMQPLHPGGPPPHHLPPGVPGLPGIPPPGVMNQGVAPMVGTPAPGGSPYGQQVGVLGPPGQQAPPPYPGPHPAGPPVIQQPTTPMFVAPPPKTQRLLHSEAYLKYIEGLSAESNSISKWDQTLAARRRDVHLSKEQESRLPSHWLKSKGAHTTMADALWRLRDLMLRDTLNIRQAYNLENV
UniProt Q12834: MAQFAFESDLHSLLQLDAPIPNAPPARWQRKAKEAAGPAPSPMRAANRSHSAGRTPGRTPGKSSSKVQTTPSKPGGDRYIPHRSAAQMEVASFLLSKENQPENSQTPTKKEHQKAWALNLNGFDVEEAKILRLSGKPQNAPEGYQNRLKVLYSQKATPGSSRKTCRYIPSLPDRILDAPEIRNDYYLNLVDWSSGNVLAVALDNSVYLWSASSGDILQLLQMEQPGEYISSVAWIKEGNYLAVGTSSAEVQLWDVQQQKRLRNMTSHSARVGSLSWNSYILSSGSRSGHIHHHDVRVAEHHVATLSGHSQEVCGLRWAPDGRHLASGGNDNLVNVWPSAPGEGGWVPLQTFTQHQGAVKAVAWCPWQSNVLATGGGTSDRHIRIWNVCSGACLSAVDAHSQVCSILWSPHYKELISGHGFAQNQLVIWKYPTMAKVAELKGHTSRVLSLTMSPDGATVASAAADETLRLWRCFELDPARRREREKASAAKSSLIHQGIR

Target: Flag-tagged PBRM1 (Polybromo 1), pcDNA3.1-PBRM1-3xFlag (UniProt Q86U86)
Experiment: affinity purification with mass spectrometry; anti-Flag immunoprecipitates of 293T cells transfected with Flag-tagged PBRM1, LC-MS/MS

CDC20 (cell division cycle 20 homologue), endogenous (from UniProt Q12834 1-499)
binding: binds

Results are given in words; binding and its absence hold for the method and conditions named. In cells and extracts the contact can be indirect. These calls come from enrichment with a bait or labelling near it, and not all partners need be listed.
